Laboratory results published in paper PMC7819943, “Rice protein-binding microarrays: a tool to detect cis-acting elements near promoter regions in rice”.
This is one part of the list.

By UniProt entry, the sequences of proteins in these tests, tags left out.
UniProt Q0JBA9, entry or part of it: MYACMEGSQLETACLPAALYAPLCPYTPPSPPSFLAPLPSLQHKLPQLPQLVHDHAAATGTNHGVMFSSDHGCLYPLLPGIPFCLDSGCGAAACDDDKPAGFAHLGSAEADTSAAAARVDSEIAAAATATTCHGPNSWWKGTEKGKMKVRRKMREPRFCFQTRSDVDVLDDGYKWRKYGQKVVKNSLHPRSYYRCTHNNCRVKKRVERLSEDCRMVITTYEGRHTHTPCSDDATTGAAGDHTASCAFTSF

These sequences were tested against OsWRKY34 (Oryza sativa, UniProt Q0JBA9 1-250) (assay: protein-binding microarray (RPBM); PBS, 2% BSA, 51.3 ng/ul salmon testes DNA, 50 uM zinc acetate, 200 nM TF, 25 C, 1 h; high values mean tight binding). Settings: protein: recombinant; tags: N-terminal polyhistidine and DsRed monomer fusion (pET32a); label: CyDye5-dUTP incorporated in the synthesized complementary strand; 3' TTTTT single-stranded linker to array surface; dsDNA, one strand shown.
Outline: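 A custom Agilent array was converted to double-stranded form by primer extension with Cy5-dUTP and blocked with 2% BSA. Protein at 200 nM in PBS with 2% BSA, salmon testes DNA and 50 µM zinc acetate was applied for 1 h at 25 °C, followed by washing. The proteins were polyhistidine–DsRed N-terminal fusions of transcription factors, expressed in E. coli BL21-CodonPlus and Ni–NTA-purified. The binding signal is per-feature fluorescence intensity (arbitrary units) from an Axon 4000B scanner.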

Sequence	binding signal
TTCTGCTTCTTCAGCCGATGCACAGCCTCTGATCAGCTTCCGGAGTCACCTAGTGCAG	9320 fluorescence intensity (a.u.)
GTGGTGTAGTGGGAGCGGCCGAGATGGGGCGTCGACGGGGCGGAGTCACCTAGTGCAG	8770 fluorescence intensity (a.u.)
TAACTCCCGCCGCTTTCTCATGCATGGTCGATCCCGCGTACGGAGTCACCTAGTGCAG	12400 fluorescence intensity (a.u.)
TCATTGCTCTCTGTGTTTCTCCGCTATGCCGCCACGTCTTCGGAGTCACCTAGTGCAG	16700 fluorescence intensity (a.u.)
GCTCCAAATTCACGCTACATTTCTTGGGCTTCATCTATATCGGAGTCACCTAGTGCAG	8800 fluorescence intensity (a.u.)
GATGGCCCAAATATCATTTCACGAAGTTTTTTTTTTCTCTCGGAGTCACCTAGTGCAG	8550 fluorescence intensity (a.u.)
TATATGATACTATCTCCGTTTCAATTATAAAACTTTTTATCGGAGTCACCTAGTGCAG	8140 fluorescence intensity (a.u.)
CAGTTTCCACCCTGGGTGGGGTGGGGCCCACCTGTCGGGGCGGAGTCACCTAGTGCAG	9940 fluorescence intensity (a.u.)
GTTCCGGAAAACCGCACATACTTGCACACAACCACGGATTCGGAGTCACCTAGTGCAG	8500 fluorescence intensity (a.u.)
TATTCTTGACTGTCTTTTTTTTTTCTCAACGTGCGCTTCACGGAGTCACCTAGTGCAG	15400 fluorescence intensity (a.u.)
GTTTCTTAAGCATAACTTCTCCCTGGCAAATGTTCTTTCTCGGAGTCACCTAGTGCAG	9610 fluorescence intensity (a.u.)
AGGTTTGACTTTACTCTGCTTCAAAATGATAAGTATTACCCGGAGTCACCTAGTGCAG	10700 fluorescence intensity (a.u.)
TCATTCCATTTCCACCTGATTTCCTACCCGGGCTACCAAACGGAGTCACCTAGTGCAG	9820 fluorescence intensity (a.u.)
GTGGCTCATATAGTCTGTGTTTCTCATATAAATCCCCATTCGGAGTCACCTAGTGCAG	8160 fluorescence intensity (a.u.)
CAAGGCCATACAACTACTATTCCTCACATATTCCCCAAACCGGAGTCACCTAGTGCAG	8600 fluorescence intensity (a.u.)
GGAAACTGTCTATCCATTTTGTCGGGTGATTTCTCTCTAGCGGAGTCACCTAGTGCAG	8230 fluorescence intensity (a.u.)
CTACGTACTGTTTAACTTATATATGTCATTTCATATGGTTCGGAGTCACCTAGTGCAG	9440 fluorescence intensity (a.u.)
GCGGCAATGTCGGAGGTGTTTGTTTGGCTCGGTTTCGAAACGGAGTCACCTAGTGCAG	8230 fluorescence intensity (a.u.)
GGCCGCCTGCAAATTTCGTTCCGTCTGCCACGTCACTTTCCGGAGTCACCTAGTGCAG	9290 fluorescence intensity (a.u.)
CCGCCGTCACCGTGCTCTTCTCGCTGCCGGTGGCGTACCCCGGAGTCACCTAGTGCAG	8430 fluorescence intensity (a.u.)
TTTATTTTCACCACCCTAGGATTGACACTTCACATTTATTCGGAGTCACCTAGTGCAG	8460 fluorescence intensity (a.u.)

Sequence	binding signal
CCACTTTGTCATTTTGGCCATTTTGTGCATTTTCGAAATCCGGAGTCACCTAGTGCAG	13200 fluorescence intensity (a.u.)
GCTAGTATATCTCTCGAGTTTGTCCCCACTCCCCAGCCATCGGAGTCACCTAGTGCAG	8150 fluorescence intensity (a.u.)
TAGATTCGTACAACCTCATATTTTCGTTTATGTTTATGCTCGGAGTCACCTAGTGCAG	8690 fluorescence intensity (a.u.)
CTGATAATGCTTTTTCGTCAAATTGCAAGTACATCCAACCCGGAGTCACCTAGTGCAG	11500 fluorescence intensity (a.u.)
AACCACGTATGCGCCACGTCATCCAAAACCGCCTTCAAAACGGAGTCACCTAGTGCAG	8990 fluorescence intensity (a.u.)
CATCTCGCCCTCGCCCTCGCCTCGCCTCGTACCATCCGACCGGAGTCACCTAGTGCAG	8970 fluorescence intensity (a.u.)
GCCATTTGTGCGCCGTCGTCCTCGGTCCTCTCAACACCGCCGGAGTCACCTAGTGCAG	8490 fluorescence intensity (a.u.)
CTACTTTAGCACTAGTTACTTTCTATCACTATTGTATTTTCGGAGTCACCTAGTGCAG	10800 fluorescence intensity (a.u.)
TCGCATCACCCGTCTCCCTGGTCGTACATCGGGTGGATATCGGAGTCACCTAGTGCAG	8940 fluorescence intensity (a.u.)
TTTTTACTGCACAACTAATGCTCGATGTCCAAATATACTTCGGAGTCACCTAGTGCAG	8040 fluorescence intensity (a.u.)
CACATCTATAAGGTAGTACTAGTATTGTTTTCTCGCTGTCCGGAGTCACCTAGTGCAG	9120 fluorescence intensity (a.u.)
CTTTCGCGTTTTCCTTGGGTTTGACAATGGGCTACATTGCCGGAGTCACCTAGTGCAG	9400 fluorescence intensity (a.u.)
GCACCGCTGTACCAGTTTCACCTGGGGCACTACGAACAATCGGAGTCACCTAGTGCAG	8400 fluorescence intensity (a.u.)
AATACGAGCACCCGAACATGAACCCGGCTCATTGAACTCACGGAGTCACCTAGTGCAG	8120 fluorescence intensity (a.u.)
AGAGATGATGAGAGAGAAGGATATAAACGGCTTATTTTTGCGGAGTCACCTAGTGCAG	8310 fluorescence intensity (a.u.)
AGAATCTCCTCTTATCTCTTCGCGCTTTCCCTCGCGACGCCGGAGTCACCTAGTGCAG	8320 fluorescence intensity (a.u.)
TGCAATTCGTACTTTTTCCTACAATTAAACAGCTACATGTCGGAGTCACCTAGTGCAG	9500 fluorescence intensity (a.u.)
AAGTTACTTTTATTTTTTTCTAGTCAAACTACTTAGACTTCGGAGTCACCTAGTGCAG	8740 fluorescence intensity (a.u.)
CACTTCTCTTCCCGCCTCATATGCAGCTGGCCCGCATTAACGGAGTCACCTAGTGCAG	11200 fluorescence intensity (a.u.)
TTCACTTTGGACCACATACCACCCATCTCTCTTCTCGAGCCGGAGTCACCTAGTGCAG	8640 fluorescence intensity (a.u.)
AACTTGATATCAATCTTGTTCTGGTTTTGGATTTGAATTTCGGAGTCACCTAGTGCAG	8230 fluorescence intensity (a.u.)

Individual results from the list:
TCATTGCTCTCTGTGTTTCTCCGCTATGCCGCCACGTCTTCGGAGTCACCTAGTGCAG | binding signal: 16700 fluorescence intensity (a.u.)
CTACTTTAGCACTAGTTACTTTCTATCACTATTGTATTTTCGGAGTCACCTAGTGCAG | binding signal: 10800 fluorescence intensity (a.u.)
